# The supplement of paper PMC12067093, “Discovery and optimisation of a covalent ligand for TRIM25 and its application to targeted protein ubiquitination” (Chemical Science, 2025)
# Sequences of proteins named here, by UniProt entry; tags and fusion partners are left off. A change or cut given only in a name is not applied to a line headed by its entry.
# UniProt Q05469: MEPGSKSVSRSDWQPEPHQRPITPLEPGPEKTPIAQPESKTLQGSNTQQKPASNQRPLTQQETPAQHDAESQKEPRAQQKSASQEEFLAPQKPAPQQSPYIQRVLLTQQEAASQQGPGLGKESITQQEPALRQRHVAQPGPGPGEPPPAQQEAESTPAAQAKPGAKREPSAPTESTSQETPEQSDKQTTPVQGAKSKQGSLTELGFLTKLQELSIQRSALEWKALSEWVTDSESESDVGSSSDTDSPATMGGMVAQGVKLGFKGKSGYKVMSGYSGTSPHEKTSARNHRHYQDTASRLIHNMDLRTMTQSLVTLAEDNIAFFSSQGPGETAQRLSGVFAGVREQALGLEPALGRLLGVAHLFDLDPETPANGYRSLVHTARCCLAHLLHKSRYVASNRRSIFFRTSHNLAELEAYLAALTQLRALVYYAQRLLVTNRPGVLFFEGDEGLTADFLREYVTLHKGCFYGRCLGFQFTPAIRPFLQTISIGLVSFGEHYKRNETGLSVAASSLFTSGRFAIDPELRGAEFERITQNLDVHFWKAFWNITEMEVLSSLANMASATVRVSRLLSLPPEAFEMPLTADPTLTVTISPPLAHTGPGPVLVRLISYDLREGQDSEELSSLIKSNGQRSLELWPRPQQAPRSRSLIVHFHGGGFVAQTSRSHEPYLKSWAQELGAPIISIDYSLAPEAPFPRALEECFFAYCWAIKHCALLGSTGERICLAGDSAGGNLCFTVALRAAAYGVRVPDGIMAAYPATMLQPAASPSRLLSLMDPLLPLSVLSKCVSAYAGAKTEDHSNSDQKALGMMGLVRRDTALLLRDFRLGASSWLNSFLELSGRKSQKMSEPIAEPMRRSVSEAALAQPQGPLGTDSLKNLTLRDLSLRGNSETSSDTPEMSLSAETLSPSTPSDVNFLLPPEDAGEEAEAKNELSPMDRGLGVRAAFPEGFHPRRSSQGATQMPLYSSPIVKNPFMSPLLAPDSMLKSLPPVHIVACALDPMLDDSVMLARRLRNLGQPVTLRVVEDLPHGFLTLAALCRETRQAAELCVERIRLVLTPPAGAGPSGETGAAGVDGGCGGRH
# The other results are listed elsewhere or left out.
# Target: LIPE_Q05469_991_SLPPVHIVACALDPMLDDSVMLAR (UniProt Q05469)
# Assay: probe-labelled cysteine peptide fold change vs DMSO (competition) (log2 fold change); higher = less target engagement (more negative = stronger competition)
# Details: THP-1, incubation time: 4 h
# 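Further: competitive chemoproteomic profiling in live THP-1 cells with an iodoacetamide desthiobiotin (IA-DTB) probe, comparing probe-labelled peptide intensities in compound-treated cells against DMSO-treated controls.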
structure (smiles),measurement,setting,value
CC1Cc2ccccc2N1C(=O)C1CCCN(C(=O)CCl)C1 (mixture of isomers) [TRIM25 ligand 11 (diastereomer mixture)],probe-labelled cysteine peptide fold change,10 µM,0.261
same,probe-labelled cysteine peptide fold change,50 µM,0.166
